Assay results published in patent US10307437B2, “Methods for treatment of vascular endothelial dysfunction using nicotinamide mononucleotide” (The Regents of the University of Colorado, a Body Corporate, priority 2014, dated 2019).
Read-outs that look alike come from different tables or passages of the source.

Tests used:
[1] = system: C57Bl/6 male mice; assay: Ex vivo carotid artery vasodilatory responses after NMN supplementation in drinking water; conditions: NMN treatment vs controls
[2] = assay type: in vivo, mice
From the text: Young (4-8 months) C57Bl/6 male mice were purchased from Charles River and old (26-28 months) C57Bl/6 male mice were obtained from the National Institute on Aging rodent colony. Mice were fed normal rodent chow ad libitum for the duration of the study. After an acclimation period of 2 weeks, the young and old mice were divided into two subgroups: control animals (YC, OC) continued on normal drinking water and the other animals (YNMN, ONMN) received nicotinamide mononucleotide (NMN; Sigma-Aldrich Corp., St. Louis, Mo., USA) supplementation in the drinking water (240 mg/kg/day) for 8 weeks. All mice were housed in an animal care facility at the University of Colorado Boulder on a 12:12 hour light-dark cycle. All animal procedures conformed to the Guide to the Care and Use of Laboratory Animals (NIH publication No. 85-23, revised 1996) and were approved by the UCB Animal Care and Use Committee.
Data are presented as mean±SEM in text, figures and tables. All analyses were performed with SPSS. A one-way ANOVA (Analysis of Variance) was used to analyze morphological characteristics, maximum EDD, NO-mediated EDD, EPR spectroscopy, aPWV, elastic modulus, Western blots, and immunohistochemistry. Within-group differences in the maximal EDD dose response to acetylcholine in the absence vs. presence of TEMPOL was determined using two-factor (group×treatment) repeated-measures ANOVA. When a significant main effect was observed, Tukey post-hoc tests were used to determine specific pairwise differences. Significance was set at p<0.05.

## NC(=O)c1ccc[n+]([C@@H]2O[C@H](COP(=O)([O-])O)[C@@H](O)[C@H]2O)c1 [NMN, nicotinamide mononucleotide]
[1]
  effect on baseline carotid artery diameters: no significant effect
[2]; NMN treatment vs controls
  age-related increase in heart mass and decrease in fat and muscle mass: not altered
[2]; old NMN-treated mice (ONMN)
  Gastroc mass (gastrocnemius): 126 ± 2 mg
  Heart mass: 182 ± 8 mg
  Quad mass (quadriceps): 146 ± 6 mg
  SubQ fat mass (subcutaneous fat): 201 ± 23 mg
  WAT mass (white adipose tissue): 430 ± 50 mg
[2]; young NMN-treated mice (YNMN)
  Gastroc mass (gastrocnemius): 148 ± 8 mg
  Heart mass: 139 ± 7 mg
  Quad mass (quadriceps): 185 ± 6 mg
  SubQ fat mass (subcutaneous fat): 252 ± 16 mg
  WAT mass (white adipose tissue): 600 ± 35 mg
